In patent US20190263889A1:
No constants are given. Whether binding was seen depends on the method and setting. Some results given as binding are weak or reduced against the parent protein; the word gives no strength.

Amino acid sequences for entries named in this document (tags omitted). Residues count along the entry.
UniProt P42081, residues 24-245: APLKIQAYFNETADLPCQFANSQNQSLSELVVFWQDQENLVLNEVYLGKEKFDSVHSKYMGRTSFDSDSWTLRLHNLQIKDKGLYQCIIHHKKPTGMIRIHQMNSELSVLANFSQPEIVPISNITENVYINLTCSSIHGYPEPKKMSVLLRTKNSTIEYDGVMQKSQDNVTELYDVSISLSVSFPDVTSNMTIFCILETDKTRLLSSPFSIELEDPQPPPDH

Assays:
[1] = target: CTLA-4Fc mutant protein M13 (human (murine residues substituted)); assay: ELISA, fusion protein coated (FIG. 20)
[2] = target: CTLA-4Fc mutant protein M17-1 (human (mutant)); assay: ELISA, summary grade
[3] = target: CTLA-4Fc mutant protein M13 (human (murine residues substituted)); assay: ELISA, summary grade
[4] = target: CTLA-4Fc mutant protein M17-1 (human (mutant)); assay: ELISA, fusion protein coated 1 ug/ml (FIG. 21A)
[5] = target: CTLA-4Fc mutant protein M17-1 (human (mutant)); assay: ELISA, fusion protein coated 1 ug/ml (FIG. 21B)

binding [1] | binding [2] | binding [3] | binding [4] | binding [5] | Substance
binds | binds | binds | binds | – | human B7-1Fc fusion protein (from UniProt P33681 35-242)
– | binds | – | – | binds | human B7-2Fc fusion protein (from UniProt P42081 24-245)
